Laboratory results taken from article PMC6372475.
These are yes or no findings as the source states them, for the method shown. Binding seen in cells or lysates may run through a third protein. Some results given as binding are weak or reduced against the parent protein; the word gives no strength. For some assays here: Sequences can lack the tags named with a protein. One block for each binder: values may come before it.

Protein sequences, listed by entry. Tags and fused reporters are not part of them.
UniProt Q9UKV8: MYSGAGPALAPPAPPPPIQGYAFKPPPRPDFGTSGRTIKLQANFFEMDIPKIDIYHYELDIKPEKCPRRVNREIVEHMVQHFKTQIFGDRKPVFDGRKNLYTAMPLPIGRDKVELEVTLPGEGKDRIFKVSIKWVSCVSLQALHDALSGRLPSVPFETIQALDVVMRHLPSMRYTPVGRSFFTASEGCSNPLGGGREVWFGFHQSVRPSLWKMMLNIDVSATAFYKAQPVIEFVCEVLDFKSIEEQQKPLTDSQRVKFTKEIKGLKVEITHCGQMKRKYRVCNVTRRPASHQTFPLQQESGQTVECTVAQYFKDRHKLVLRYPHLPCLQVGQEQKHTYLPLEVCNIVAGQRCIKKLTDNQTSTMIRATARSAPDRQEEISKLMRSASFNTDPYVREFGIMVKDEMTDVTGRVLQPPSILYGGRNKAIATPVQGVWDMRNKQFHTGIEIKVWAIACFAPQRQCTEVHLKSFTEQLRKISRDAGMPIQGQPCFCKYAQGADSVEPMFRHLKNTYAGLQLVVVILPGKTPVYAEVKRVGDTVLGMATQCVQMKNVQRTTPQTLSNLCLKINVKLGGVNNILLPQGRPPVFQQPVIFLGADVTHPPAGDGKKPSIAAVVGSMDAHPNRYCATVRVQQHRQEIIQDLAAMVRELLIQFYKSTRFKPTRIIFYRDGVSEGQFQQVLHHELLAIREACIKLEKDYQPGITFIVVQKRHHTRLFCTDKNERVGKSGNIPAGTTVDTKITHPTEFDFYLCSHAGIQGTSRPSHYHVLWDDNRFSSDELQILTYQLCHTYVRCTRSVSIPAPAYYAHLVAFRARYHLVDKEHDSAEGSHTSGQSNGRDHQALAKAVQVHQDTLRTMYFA

What was measured:
[1] = biological target: Myc-tagged AGO2 (Argonaute2), wild type (UniProt Q9UKV8); experiment: co-IP; two tagged proteins co-transfected into 293T cells; lysis in RIPA buffer (50 mM Tris-HCl pH7.4, 150 mM NaCl, 1% NP-40); IP with anti-Myc or anti-Flag antibody and protein A/G-agarose at 4 °C overnight, Western blotting
[2] = biological target: endogenous AGO2 (human (endogenous in 293T)) (UniProt Q9UKV8); experiment: co-IP; endogenous proteins of 293T lysate; IP with anti-AGO2 or anti-HDAC7 antibody, normal IgG as negative control, Western blotting

binding [1]: binds
B1: Flag-tagged HDAC7 (enzyme, UniProt Q8WUI4 1-952)
chain: MDLRVGQRPPVEPPPEPTLLALQRPQRLHHHLFLAGLQQQRSVEPMRLSMDTPMPELQVGPQEQELRQLLHKDKSKRSAVASSVVKQKLAEVILKKQQAALERTVHPNSPGIPYRTLEPLETEGATRSMLSSFLPPVPSLPSDPPEHFPLRKTVSEPNLKLRYKPKKSLERRKNPLLRKESAPPSLRRRPAETLGDSSPSSSSTPASGCSSPNDSEHGPNPILGSEALLGQRLRLQETSVAPFALPTVSLLPAITLGLPAPARADSDRRTHPTLGPRGPILGSPHTPLFLPHGLEPEAGGTLPSRLQPILLLDPSGSHAPLLTVPGLGPLPFHFAQSLMTTERLSGSGLHWPLSRTRSEPLPPSATAPPPPGPMQPRLEQLKTHVQVIKRSAKPSEKPRLRQIPSAEDLETDGGGPGQVVDDGLEHRELGHGQPEARGPAPLQQHPQVLLWEQQRLAGRLPRGSTGDTVLLPLAQGGHRPLSRAQSSPAAPASLSAPEPASQARVLSSSETPARTLPFTTGLIYDSVMLKHQCSCGDNSRHPEHAGRIQSIWSRLQERGLRSQCECLRGRKASLEELQSVHSERHVLLYGTNPLSRLKLDNGKLAGLLAQRMFVMLPCGGVGVDTDTIWNELHSSNAARWAAGSVTDLAFKVASRELKNGFAVVRPPGHHADHSTAMGFCFFNSVAIACRQLQQQSKASKILIVDWDVHHGNGTQQTFYQDPSVLYISLHRHDDGNFFPGSGAVDEVGAGSGEGFNVNVAWAGGLDPPMGDPEYLAAFRIVVMPIAREFSPDLVLVSAGFDAAEGHPAPLGGYHVSAKCFGYMTQQLMNLAGGAVVLALEGGHDLTAICDASEACVAALLGNRVDPLSEEGWKQKPNLNAIRSLEAVIRVHSKYWGCMQRLASCPDSWVPRVPGADKEEVEAVTALASLSVGILAEDRPSEQLVEEEEPMNL

binding [2]: binds
B2: endogenous HDAC7 (enzyme, UniProt Q8WUI4 1-952)
chain: B1 chain
